This continues a long series; more values of the same kind are listed elsewhere.
Assay: Assay (I): Determination of Solubility (96-well plate, pH 3.0-11.0, organic solvent 0-70% w/w, UV absorption at 280 nm)
Format: physicochemical
Details: Method 1
Experimental: Assay (I): Determination of Solubility
96-Well Plate Preparation
96-well plates containing target peptide in a solid form were prepared in one of two ways:
Method 1 (evaporation): Addition of 100 μl stock solution of said peptide at a concentration of 4-6 mg/ml to each well of a 96-well half area plate (150 μl well size). Subsequently the solvent was evaporated by applying a vacuum until the solvent was completely removed.
Method 2 (precipitation): Addition of a certain volume of a stock solution of said peptide containing to each well of a 96-well half area plate followed by the addition of a certain volume of concentrated phosphoric acid to obtain a pH of 4.6 followed by addition of a certain volume of ethanol resulting in a final ethanol concentration of 20% v/v. Subsequently the plate was stored at 4° C. for 1 h and then centrifuged at 4,000 rpm for 20 min. Finally the supernatant was removed. The concentration of the stock solution was chosen in a way that the final amount of peptide after supernatant removal was >0.4 mg per well.
In both cases the stock solution was prepared by adding de-ionized water to a certain amount of powder of said peptide followed by a stepwise addition of small amounts of a concentrated sodium hydroxide solution until said peptide was completely in solution.
To determine solubility of a target peptide at different pH and organic solvent concentrations, two different buffer systems were used in independent experiments to cover the whole range from pH 3.0 to pH 11.0. Buffer system 1 covers pH 3.0-7.5 and buffer system 2 covers pH 7.5-11.0. For each buffer system 96 different solvent compositions were premixed in the following way: • 1. A low pH buffer (adjusted to either pH 3.0 or pH 7.5) and a high pH buffer (adjusted to either pH 7.5 or pH 11.0) were mixed at 8 different ratios to obtain values between pH 3.0 and pH 7.5 or pH 7.5 and pH 11.0, respectively. The total volume after mixing was 300 μl. • 2. 12 different amounts of organic solvent were then added to these buffers to obtain organic solvent (e.g. ethanol) concentrations between 0 and 70% w/w. • 3. Water was then added to obtain a total weight of 1.0 g of solvent in each well.
After preparing the 96 different solvent systems, 100 μl of each system was transferred to the 96-well plate containing the solid form of the target peptide (prepared as described in the section “96-well plate preparation”). The plate was then stored at a given temperature (between 5° C. and 70° C.) for a given time on a rotating shaker set to 400 rpm. At regular time intervals the plate was centrifuged (4,000 rpm for 10 min) and a 10 μl sample was taken from each well. The samples were then analysed by UV absorption at 280 nm for peptide quantification. Peptide concentration results are given as UV absorption at 280 nm of the sample subtracted UV absorption at 280 nm of a well comprising 10 μl water.
The buffers used were as follows: • Buffer system 1 (for the pH range from pH 3.0-7.5)
• Buffer system 2 (for the pH ranae from pH 7.5-11.0)
Solubility of liraglutide was determined using Assay (I) described herein. Liraglutide was prepared using Method 1 (evaporation) or Method 2 (precipitation) as described in subsection “96-well plate preparation”.

[1] = MeCN 25.5% w/w, pH 10.0, 70° C.
[2] = MeCN 25.5% w/w, pH 10.5, 70° C.
[3] = MeCN 25.5% w/w, pH 11.0, 70° C.

Peptide concentration after 5 min (MeCN 25.5% w/w, pH 6.9, 70° C.): 3.8 mg/mL | Peptide concentration after 180 min (MeCN 25.5% w/w, pH 6.9, 70° C.): 3.5 mg/mL | Peptide concentration after 5 min (MeCN 25.5% w/w, pH 6.9, RT): 1.2 mg/mL | Peptide concentration after 180 min (MeCN 25.5% w/w, pH 6.9, RT): 3.5 mg/mL | Peptide concentration after 24 h (MeCN 25.5% w/w, pH 6.9, RT): 1.4 mg/mL | Peptide concentration after 5 min (MeCN 25.5% w/w, pH 7.5, 5° C.): 1.3 mg/mL | Peptide concentration after 180 min (MeCN 25.5% w/w, pH 7.5, 5° C.): 3.8 mg/mL | Peptide concentration after 24 h (MeCN 25.5% w/w, pH 7.5, 5° C.): >4.0 mg/mL | Peptide concentration after 5 min (MeCN 25.5% w/w, pH 7.5, 70° C.): >4.0 mg/mL | Peptide concentration after 180 min (MeCN 25.5% w/w, pH 7.5, 70° C.): >4.0 mg/mL | Peptide concentration after 5 min (MeCN 25.5% w/w, pH 7.5, RT): 1.4 mg/mL | Peptide concentration after 180 min (MeCN 25.5% w/w, pH 7.5, RT): >4.0 mg/mL | Peptide concentration after 24 h (MeCN 25.5% w/w, pH 7.5, RT): >4.0 mg/mL | Peptide concentration after 5 min (MeCN 25.5% w/w, pH 8.0, 70° C.): >4.0 mg/mL | Peptide concentration after 180 min (MeCN 25.5% w/w, pH 8.0, 70° C.): >4.0 mg/mL | Peptide concentration after 5 min (MeCN 25.5% w/w, pH 8.0, RT): 1.1 mg/mL | Peptide concentration after 180 min (MeCN 25.5% w/w, pH 8.0, RT): 3.9 mg/mL | Peptide concentration after 24 h (MeCN 25.5% w/w, pH 8.0, RT): >4.0 mg/mL | Peptide concentration after 5 min (MeCN 25.5% w/w, pH 8.5, 70° C.): 4.0 mg/mL | Peptide concentration after 180 min (MeCN 25.5% w/w, pH 8.5, 70° C.): >4.0 mg/mL | Peptide concentration after 5 min (MeCN 25.5% w/w, pH 8.5, RT): 1.0 mg/mL | Peptide concentration after 180 min (MeCN 25.5% w/w, pH 8.5, RT): >4.0 mg/mL | Peptide concentration after 24 h (MeCN 25.5% w/w, pH 8.5, RT): >4.0 mg/mL | Peptide concentration after 5 min (MeCN 25.5% w/w, pH 9.0, 70° C.): 3.7 mg/mL | Peptide concentration after 180 min (MeCN 25.5% w/w, pH 9.0, 70° C.): >4.0 mg/mL | Peptide concentration after 5 min (MeCN 25.5% w/w, pH 9.0, RT): 0.5 mg/mL | Peptide concentration after 180 min (MeCN 25.5% w/w, pH 9.0, RT): 3.5 mg/mL | Peptide concentration after 24 h (MeCN 25.5% w/w, pH 9.0, RT): >4.0 mg/mL | Peptide concentration after 5 min (MeCN 25.5% w/w, pH 9.5, 70° C.): >4.0 mg/mL | Peptide concentration after 180 min (MeCN 25.5% w/w, pH 9.5, 70° C.): >4.0 mg/mL | Peptide concentration after 5 min (MeCN 25.5% w/w, pH 9.5, RT): 1.5 mg/mL | Peptide concentration after 180 min (MeCN 25.5% w/w, pH 9.5, RT): >4.0 mg/mL | Peptide concentration after 24 h (MeCN 25.5% w/w, pH 9.5, RT): >4.0 mg/mL | Peptide concentration after 5 min [1]: >4.0 mg/mL | Peptide concentration after 180 min [1]: >4.0 mg/mL | Peptide concentration after 5 min (MeCN 25.5% w/w, pH 10.0, RT): 1.6 mg/mL | Peptide concentration after 180 min (MeCN 25.5% w/w, pH 10.0, RT): >4.0 mg/mL | Peptide concentration after 24 h (MeCN 25.5% w/w, pH 10.0, RT): >4.0 mg/mL | Peptide concentration after 5 min [2]: >4.0 mg/mL | Peptide concentration after 180 min [2]: >4.0 mg/mL | Peptide concentration after 5 min (MeCN 25.5% w/w, pH 10.5, RT): 1.7 mg/mL | Peptide concentration after 180 min (MeCN 25.5% w/w, pH 10.5, RT): >4.0 mg/mL | Peptide concentration after 24 h (MeCN 25.5% w/w, pH 10.5, RT): >4.0 mg/mL | Peptide concentration after 5 min [3]: >4.0 mg/mL | Peptide concentration after 180 min [3]: >4.0 mg/mL | Peptide concentration after 5 min (MeCN 25.5% w/w, pH 11.0, RT): 1.2 mg/mL | Peptide concentration after 180 min (MeCN 25.5% w/w, pH 11.0, RT): >4.0 mg/mL | Peptide concentration after 24 h (MeCN 25.5% w/w, pH 11.0, RT): >4.0 mg/mL | Peptide concentration after 5 min (MeCN 31.8% w/w, pH 3.0, 5° C.): 1.0 mg/mL | Peptide concentration after 180 min (MeCN 31.8% w/w, pH 3.0, 5° C.): 0.7 mg/mL
Compound: CCCCCCCCCCCCCCCC(=O)N[C@@H](CCC(=O)NCCCC[C@H](NC(=O)[C@H](C)NC(=O)[C@H](C)NC(=O)[C@H](CCC(N)=O)NC(=O)CNC(=O)[C@H](CCC(=O)O)NC(=O)[C@H](CC(C)C)NC(=O)[C@H](Cc1ccc(O)cc1)NC(=O)[C@H](CO)NC(=O)[C@H](CO)NC(=O)[C@@H](NC(=O)[C@H](CC(=O)O)NC(=O)[C@H](CO)NC(=O)[C@@H](NC(=O)[C@H](Cc1ccccc1)NC(=O)[C@@H](NC(=O)CNC(=O)[C@H](CCC(=O)O)NC(=O)[C@H](C)NC(=O)[C@@H](N)Cc1cnc[nH]1)[C@@H](C)O)[C@@H](C)O)C(C)C)C(=O)N[C@@H](CCC(=O)O)C(=O)N[C@@H](Cc1ccccc1)C(=O)N[C@H](C(=O)N[C@@H](C)C(=O)N[C@@H](Cc1c[nH]c2ccccc12)C(=O)N[C@@H](CC(C)C)C(=O)N[C@H](C(=O)N[C@@H](CCCNC(=N)N)C(=O)NCC(=O)N[C@@H](CCCNC(=N)N)C(=O)NCC(=O)O)C(C)C)[C@@H](C)CC)C(=O)O [liraglutide, Arg34,Lys26-(N-epsilon-(gamma-L-glutamyl(N-alfa-hexadecanoyl)))-GLP-1(7-37)]

From patent publication US20210261642A1, “SOLUBILITY OF GLP-1 PEPTIDE” (Novo Nordisk A/S, priority 2017, published 2021)
